In US20020161528A1, “Tool for lipophilicity determination in drug discovery basic and neutral compounds” (Pfizer Inc., priority 2001, published 2002):

What was measured:
physchem = details: pH 7.4
[1] = pH 7.4; cited from earlier work

Q: Which chromatographic logD (physchem) does the source give for COC(=O)C1=C(C)NC(C)=C(C(=O)OC)C1c1ccccc1[N+](=O)[O-] [Nifedipine] here?
A: Its chromatographic logD is 2.84.

Q: What about the logDoct [1] of the same molecule?
A: The logDoct was 3.17.
